# According to publication PMC9224473 (International Journal of Molecular Sciences, 2022):
# Some ranges recur; such a range may be that of the whole group of compounds.
# What was measured:
# [1] = tested on: SW620 (human metastatic colon cancer); test: MTT cytotoxicity assay; assay type: cell-based; settings: HaCaT versus SW620
# Method: (§1) The human cell lines SW480 (primary colon cancer), SW620 (lymph node metastatic colon cancer from the same patient as primary cancer cells), HCT116 (colon carcinoma), HepG2 (liver cancer), and HaCaT (immortalized keratinocytes) were obtained from the American Type Culture Collection (ATCC, Rockville, MD, USA). The SW480, SW620 and HCT116 cells were grown in MEM (ThermoSci, Waltham, MA, USA), HepG2 and HaCaT in DMEM High Glucose (Biowest SAS, Nuaillé, France) supplemented with 10% foetal bovine serum (FBS), HEPES (20 mM), and antibiotics (100 U mL^−1 of Penicillin and 100 μg mL^−1 of Streptomycin). The cells were incubated in a humidified incubator at 37 °C/5% CO2, until 80–90% confluence was reached.
# The cell viability was assessed by using of MTT salt [3-(4,5-dimethylthiazol-2-yl)-2,5-diphenyltetrazolium bromide] converted by mitochondrial dehydrogenase, occurring in living cells. […] The untreated cells were used as the control.
# (§2) Subsequently, the medium was removed and dimethyl sulfoxide (DMSO) with isopropanol (1:1) was added to dissolve the formazan crystals. The optical density was measured using UVM 340 reader (ASYS Hitech GmbH, Eugendorf, Austria) at a wavelength of 570 nm. The experiments were repeated three times. The cell viability was calculated as the percent of MTT reduced in treated cells versus control cells (untreated cells). The number of viable cells cultured without tested compounds was assumed as 100%. A decreased relative MTT level indicates decreased cell viability. The IC50 values were estimated using CompuSyn version 1.0.
# [2] = tested on: cancer cells (HepG2, HCT-116, SW480, SW620) versus HaCaT; test: MTT assay, selectivity over the cancer cell panel; assay type: cell-based, human; settings: range over HepG2, HCT116, SW480, SW620
# [3] = tested on: SW480 (human primary colon cancer); test: MTT cytotoxicity assay; assay type: cell-based; settings: HaCaT versus SW480
# Method: as §1
# (§3) The cell viability was assessed by using of MTT salt [3-(4,5-dimethylthiazol-2-yl)-2,5-diphenyltetrazolium bromide] converted by mitochondrial dehydrogenase, occurring in living cells. The cells were seeded in 96-well plates at a density of 1 × 10^4 cells per well and allowed to adhere for 24 h at 37 °C in a CO2 humidified incubator. […]. The untreated cells were used as the control.
# as §2, with “After 72 h incubation, the medium was replaced with 200 µL per well of free-serum medium containing 0.5 mg mL^−1 MTT and incubated for 4 h at 37 °C in a CO2 humidified incubator. Subsequently,” for “Subsequently,”
# [4] = tested on: HepG2 (human liver cancer); test: MTT cytotoxicity assay; assay type: cell-based; settings: HaCaT versus HepG2
# Method: as §1, §3
# as §2, with “After 72 h incubation, the medium was replaced with 200 µL per well of free-serum medium containing 0.5 mg mL^−1 MTT and incubated for 4 h at 37 °C in a CO2 humidified incubator. Subsequently,” for “Subsequently,”
# [5] = tested on: HCT116 (human colon cancer); test: MTT cytotoxicity assay; assay type: cell-based; settings: HaCaT versus HCT116
# Method: as §1, §3
# as §2, with “After 72 h incubation, the medium was replaced with 200 µL per well of free-serum medium containing 0.5 mg mL^−1 MTT and incubated for 4 h at 37 °C in a CO2 humidified incubator. Subsequently,” for “Subsequently,”
compound,measurement,setting,value
"Cc1ccc(C(C)C)c(OC(=O)CCN2CCN(c3cc4c(cc3F)c(=O)c(C(=O)O)cn4C3CC3)CC2)c1 [Compound 11, 1-cyclopropyl-6-fluoro-7-{4-[3-(2-isopropyl-5-methylphenoxy)-3-oxopropyl]piperazin-1-yl}-4-oxo-1,4-dihydroquinoline-3-carboxylic acid]",SI SW620 (IC50 for normal cell line/IC50 cancer cell line),[1],2.2
same,SI range over cancer cell lines,[2],1.9–3.4
same,SI SW480 (IC50 for normal cell line/IC50 cancer cell line),[3],2.9
same,SI HepG2 (IC50 for normal cell line/IC50 cancer cell line),[4],1.9
same,SI HCT116 (IC50 for normal cell line/IC50 cancer cell line),[5],2.5
"Cc1ccc(C(C)C)c(OC(=O)CCCN2CCN(c3cc4c(cc3F)c(=O)c(C(=O)O)cn4C3CC3)CC2)c1 [Compound 12, 1-cyclopropyl-6-fluoro-7-{4-[4-(2-isopropyl-5-methylphenoxy)-4-oxobutyl]piperazin-1-yl}-4-oxo-1,4-dihydroquinoline-3-carboxylic acid]",SI SW620 (IC50 for normal cell line/IC50 cancer cell line),[1],0.9
same,SI SW480 (IC50 for normal cell line/IC50 cancer cell line),[3],1.7
same,SI HepG2 (IC50 for normal cell line/IC50 cancer cell line),[4],1.4
same,SI HCT116 (IC50 for normal cell line/IC50 cancer cell line),[5],2.0
"CC(C)[C@@H]1CC[C@@H](C)C[C@H]1OCC(=O)N1CCN(c2cc3c(cc2F)c(=O)c(C(=O)O)cn3C2CC2)CC1 [Compound 1, 1-cyclopropyl-6-fluoro-7-{4-[2-((1R,2S,5R)-2-isopropyl-5-methylcyclohexyloxy)acetyl]piperazin-1-yl}-4-oxo-1,4-dihydroquinoline-3-carboxylic acid]",SI SW620 (IC50 for normal cell line/IC50 cancer cell line),[1],0.7
same,SI SW480 (IC50 for normal cell line/IC50 cancer cell line),[3],0.5
same,SI HepG2 (IC50 for normal cell line/IC50 cancer cell line),[4],0.9
same,SI HCT116 (IC50 for normal cell line/IC50 cancer cell line),[5],0.6
"Cc1ccc(C(C)C)c(OC(=O)CCCCN2CCN(c3cc4c(cc3F)c(=O)c(C(=O)O)cn4C3CC3)CC2)c1 [Compound 13, 1-cyclopropyl-6-fluoro-7-{4-[5-(2-isopropyl-5-methylphenoxy)-5-oxopentyl]piperazin-1-yl}-4-oxo-1,4-dihydroquinoline-3-carboxylic acid]",SI SW620 (IC50 for normal cell line/IC50 cancer cell line),[1],1.9
same,SI SW480 (IC50 for normal cell line/IC50 cancer cell line),[3],2.1
same,SI HepG2 (IC50 for normal cell line/IC50 cancer cell line),[4],2.9
same,SI HCT116 (IC50 for normal cell line/IC50 cancer cell line),[5],1.9
"CC(C)[C@@H]1CC[C@@H](C)C[C@H]1OC(=O)CCCCCN1CCN(c2cc3c(cc2F)c(=O)c(C(=O)O)cn3C2CC2)CC1 [Compound 6, 1-cyclopropyl-6-fluoro-7-{4-[6-((1R,2S,5R)-2-isopropyl-5-methylcyclohexyloxy)-6-oxohexyl]piperazin-1-yl}-4-oxo-1,4-dihydroquinoline-3-carboxylic acid]",SI SW620 (IC50 for normal cell line/IC50 cancer cell line),[1],2.6
same,SI SW480 (IC50 for normal cell line/IC50 cancer cell line),[3],2.2
same,SI HepG2 (IC50 for normal cell line/IC50 cancer cell line),[4],1.9
same,SI HCT116 (IC50 for normal cell line/IC50 cancer cell line),[5],3.4
"CC(C)[C@@H]1CC[C@@H](C)C[C@H]1OC(=O)CCCCN1CCN(c2cc3c(cc2F)c(=O)c(C(=O)O)cn3C2CC2)CC1 [Compound 5, 1-cyclopropyl-6-fluoro-7-{4-[5-((1R,2S,5R)-2-isopropyl-5-methylcyclohexyloxy)-5-oxopentyl)piperazin-1-yl)-4-oxo-1,4-dihydroquinoline-3-carboxylic acid]",SI SW620 (IC50 for normal cell line/IC50 cancer cell line),[1],1.6
same,SI SW480 (IC50 for normal cell line/IC50 cancer cell line),[3],0.7
same,SI HepG2 (IC50 for normal cell line/IC50 cancer cell line),[4],0.9
same,SI HCT116 (IC50 for normal cell line/IC50 cancer cell line),[5],1.2
"CC(C)[C@@H]1CC[C@@H](C)C[C@H]1OC(=O)CN1CCN(c2cc3c(cc2F)c(=O)c(C(=O)O)cn3C2CC2)CC1 [Compound 2, 1-cyclopropyl-6-fluoro-7-{4-[2-((1R,2S,5R)-2-isopropyl-5-methylcyclohexyloxy)-2-oxoethyl]piperazin-1-yl}-4-oxo-1,4-dihydroquinoline-3-carboxylic acid]",SI SW620 (IC50 for normal cell line/IC50 cancer cell line),[1],0.9
same,SI SW480 (IC50 for normal cell line/IC50 cancer cell line),[3],0.7
same,SI HepG2 (IC50 for normal cell line/IC50 cancer cell line),[4],1.5
same,SI HCT116 (IC50 for normal cell line/IC50 cancer cell line),[5],0.8
"Cc1ccc(C(C)C)c(OCC(=O)N2CCN(c3cc4c(cc3F)c(=O)c(C(=O)O)cn4C3CC3)CC2)c1 [Compound 9, 1-cyclopropyl-6-fluoro-7-{4-[2-(2-isopropyl-5-methylphenoxy)acetyl]piperazin-1-yl}-4-oxo-1,4-dihydroquinoline-3-carboxylic acid]",SI SW620 (IC50 for normal cell line/IC50 cancer cell line),[1],0.4
same,SI SW480 (IC50 for normal cell line/IC50 cancer cell line),[3],0.7
same,SI HepG2 (IC50 for normal cell line/IC50 cancer cell line),[4],0.7
same,SI HCT116 (IC50 for normal cell line/IC50 cancer cell line),[5],0.4
"1-cyclopropyl-6-fluoro-7-{4-[2-(2-isopropyl-5-methylphenoxy)acetyl]piperazin-1-yl}-4-oxo-1,4-dihydroquinoline-3-carboxylic acid [Compound 10]",SI SW620 (IC50 for normal cell line/IC50 cancer cell line),[1],0.6
same,SI SW480 (IC50 for normal cell line/IC50 cancer cell line),[3],0.6
same,SI HepG2 (IC50 for normal cell line/IC50 cancer cell line),[4],1.4
same,SI HCT116 (IC50 for normal cell line/IC50 cancer cell line),[5],0.4
"CC(C)[C@@H]1CC[C@@H](C)C[C@H]1OC(=O)CCCN1CCN(c2cc3c(cc2F)c(=O)c(C(=O)O)cn3C2CC2)CC1 [Compound 4, 1-cyclopropyl-6-fluoro-7-{4-[4-((1R,2S,5R)-2-isopropyl-5-methylcyclohexyloxy)-4-oxobutyl]piperazin-1-yl}-4-oxo-1,4-dihydroquinoline-3-carboxylic acid]",SI SW620 (IC50 for normal cell line/IC50 cancer cell line),[1],0.6
same,SI SW480 (IC50 for normal cell line/IC50 cancer cell line),[3],0.8
same,SI HepG2 (IC50 for normal cell line/IC50 cancer cell line),[4],0.9
same,SI HCT116 (IC50 for normal cell line/IC50 cancer cell line),[5],1.3
"Cc1ccc(C(C)C)c(OC(=O)CCCCCN2CCN(c3cc4c(cc3F)c(=O)c(C(=O)O)cn4C3CC3)CC2)c1 [Compound 14, 1-cyclopropyl-6-fluoro-7-{4-[6-(2-isopropyl-5-methylphenoxy)-6-oxohexyl]piperazin-1-yl}-4-oxo-1,4-dihydroquinoline-3-carboxylic acid]",SI SW620 (IC50 for normal cell line/IC50 cancer cell line),[1],0.6
same,SI SW480 (IC50 for normal cell line/IC50 cancer cell line),[3],0.9
same,SI HepG2 (IC50 for normal cell line/IC50 cancer cell line),[4],0.7
same,SI HCT116 (IC50 for normal cell line/IC50 cancer cell line),[5],0.8
"CC(C)[C@@H]1CC[C@@H](C)C[C@H]1OC(=O)CCN1CCN(c2cc3c(cc2F)c(=O)c(C(=O)O)cn3C2CC2)CC1 [Compound 3, 1-cyclopropyl-6-fluoro-7-{4-[3-((1R,2S,5R)-2-isopropyl-5-methylcyclohexyloxy)-3-oxopropyl]piperazin-1-yl}-4-oxo-1,4-dihydroquinoline-3-carboxylic acid]",SI SW620 (IC50 for normal cell line/IC50 cancer cell line),[1],1.2
same,SI range over cancer cell lines,[2],1.9–3.4
same,SI SW480 (IC50 for normal cell line/IC50 cancer cell line),[3],1.5
same,SI HepG2 (IC50 for normal cell line/IC50 cancer cell line),[4],1.2
same,SI HCT116 (IC50 for normal cell line/IC50 cancer cell line),[5],1.7
